Measured values as given in the supplement of paper PMC10735217.
Where “and” joins values, the source holds several entries; their conditions need not be identical. Equal entries are not always repeated. Structures can show the parent of a compound that is named as a salt. The list shows a part of the results. Repeats in this data set agree poorly, so a single value says little.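 The human kidney-derived cells carry a stably integrated construct of eight TEAD-binding elements driving luciferase, read by luminescence in a drug-repurposing library screen. A compound counts as a hit when its signal is more than five robust Z scores above the plate mean.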

Tested on: HEK293A TEAD-LUC reporter
Assay: TEAD-luciferase reporter activity (YAP activation), robust Z score vs plate; higher = stronger YAP/TEAD activation
Conditions: 24 h

Row | SMILES | TEAD-luciferase reporter activity (compound concentration: 200 nM) | TEAD-luciferase reporter activity (compound concentration: 2 uM) | TEAD-luciferase reporter activity (compound concentration: 10 uM)
1 | COc1ccc2cc3[n+](cc2c1OC)CCc1cc2c(cc1-3)OCO2 [Berberine chloride] | inactive: -1.59 | inactive: -1.85 | inactive: 1.67
2 | CCOC(=O)C1=C(C)NC(C)=C(C(=O)OCC)C1c1cccnc1SC | inactive: -1.03 | inactive: -1.45 | inactive: -0.502
3 | COc1ccc(C(=O)Nc2cccc(O)c2NC(=O)c2ccc(N3CCCN(C)CC3)cc2)cc1 [Darexaban maleate] | inactive: -1.83 | inactive: -0.83 | inactive: 0.539
4 | CO/N=C1/CC(CO)N(C(=O)c2ccc(-c3ccccc3C)cc2)C1 (configuration not stated) | inactive: 1.42 | inactive: -0.67 | inactive: 3.05
5 | Cc1cccc(CN2CCN(C)C[C@@H](NC(=O)c3n[nH]c4ccccc34)C2)c1 | inactive: -1.59 | inactive: -0.647 | inactive: 1.93
6 | CSCC[C@H](NC(=O)c1cc(NC[C@@H]2C[C@H](SC(=O)c3cccnc3)CN2)ccc1CCc1ccc(F)cc1)C(=O)OC(C)C | inactive: -1.56 | inactive: 1.5 | inactive: -0.0535
7 | Oc1ccc(Nc2ccnc3cc(Cl)ccc23)cc1CN1CCCC1 | inactive: -0.63 | inactive: -1.01 | inactive: 2.51
8 | Cc1c(C)c2c(c(C)c1O)C[C@@H](CC(=O)O)O2 | inactive: 0.0343 | inactive: -1.03 | inactive: 0.77
9 | O=C(O)CCC(=O)c1ccc2oc3ccccc3c2c1 [furobufen] | inactive: -0.116 | inactive: 0.763 | inactive: 3.1
10 | CSc1ccccc1OCC(O)CNC(C)C (configuration not stated) [tiprenolol] | inactive: -1.24 | inactive: -1.59 | inactive: 0.741
11 | Cn1cnc2c(NC3CCCC3)ncnc21 | inactive: -1.58 | – | inactive: 0.0465
12 | O=C(O)c1ccc(OCCn2ccnc2)cc1 [Dazoxiben hydrochloride] | inactive: 0.3 | inactive: -0.783 | inactive: -1.1
13 | CCN1CCN(c2cc(-c3ccc(F)cc3)c3c(n2)CCCCCC3)CC1 [blonanserin] | inactive: -0.362 | inactive: -1.13 | inactive: -0.173
14 | CCOC(=O)C(c1ccccc1)N1CCCCC1 (configuration not stated) | inactive: 0.864 | inactive: 1.51 | inactive: 2.89
15 | O=C(O)CN1C(=O)[C@@H](NC(=O)C2(CC(CCc3ccccc3)C(=O)O)CCCC2)CCc2ccccc21 (some centres not stated) | inactive: -1.26 | inactive: -1.26 | inactive: 4.82
16 | CNC(=O)c1cccc2cc(Oc3ccnc4cc(OCC5(N)CC5)c(OC)cc34)ccc12 [lucitanib] | inactive: -1.86 | inactive: -0.996 | inactive: 0.204
17 | C1Cc2[nH]nc(-c3nnn[nH]3)c2C1 | inactive: -0.759 | inactive: 0.921 | inactive: 1.33
18 | COc1ccc(C[C@@H](C(=O)N[C@@H](C)c2cccc3ccccc23)N(C)S(=O)(=O)Cc2ccccc2)cc1 | inactive: 3.27 | inactive: -0.803 | inactive: 0.197
19 | CCC(=O)O[C@]1(C(=O)S[C@H]2CCOC2=O)[C@H](C)C[C@H]2[C@@H]3C[C@H](F)C4=CC(=O)C=C[C@]4(C)[C@@]3(F)[C@@H](O)C[C@@]21C [Zoticasone propionate] | inactive: -1.45 | inactive: -0.323 | inactive: 1.45
20 | Cc1cc2c(F)c(Oc3ncnn4cc(OC[C@@H](C)OC(=O)[C@H](C)N)c(C)c34)ccc2[nH]1 [brivanib alaninate] | inactive: 2.55 | inactive: -1.87 | inactive: -1.89
21 | O=C(O)CC/C=C\C[C@@H]1CO[C@H](c2ccccc2Cl)O[C@@H]1c1ccccc1O | inactive: -1.19 | inactive: -1.25 | inactive: -1.08
22 | CN1C[C@H](O)[C@@H](O)[C@H](O)[C@H]1CO | inactive: -1.26 | inactive: -0.942 | inactive: 0.351
23 | O=c1c2c[nH]c3ccccc3c-2nn1-c1ccc(Cl)cc1 | inactive: 1.81 | inactive: 0.35 | inactive: 2.61
24 | COCCOC(=O)C1=C(C)NC(C)=C(C(=O)OC/C=C/c2ccccc2)C1c1cccc([N+](=O)[O-])c1 (configuration not stated) [cilnidipine] | inactive: -0.578 | inactive: -2.29 | inactive: 0.0748
25 | COCCOC(=O)C1=C(C)NC(C)=C(C(=O)OC/C=C/c2ccccc2)C1c1cccc([N+](=O)[O-])c1 (configuration not stated) [Cilnidipine] | – | inactive: -0.579 | –
26 | O[C@H]1CC[C@H](Nc2nc(-c3ccccc3)nc3[nH]ccc23)CC1 [Derenofylline] | inactive: -2.55 | inactive: -1.64 | inactive: 2.98
27 | O=C(O)CCC/C=C\C[C@@H]1[C@@H](/C=C/[C@@H](O)COc2cccc(Cl)c2)[C@H](O)C[C@@H]1O | inactive: -0.766 | inactive: 1.82 | inactive: 0.619

Row | SMILES | TEAD-luciferase reporter activity (compound concentration: 200 nM) | TEAD-luciferase reporter activity (compound concentration: 2 uM) | TEAD-luciferase reporter activity (compound concentration: 10 uM)
28 | Cc1cc(SCc2sc(-c3ccc(C(F)(F)F)cc3F)nc2C)ccc1OC(C)(C)C(=O)O [Sodelglitazar] | – | inactive: 2.7 | –
29 | Cc1cc(SCc2sc(-c3ccc(C(F)(F)F)cc3F)nc2C)ccc1OC(C)(C)C(=O)O | inactive: 0.61 | – | active: 5.78
30 | CS(=O)(=O)Oc1ccc(OCCc2ccc(CC(SCCc3ccc(O)cc3)C(N)=O)cc2)cc1 (configuration not stated) | inactive: -1.02 | inactive: -1.17 | inactive: 0.954
31 | CN(CO)c1nc(N(C)CO)nc(N(C)CO)n1 [Trimethyl TMM] | inactive: -0.903 | inactive: 0.322 | inactive: 2.01
32 | O=C(O)CCC(=O)N1CCN(C2CCNCC2)C(=O)C1 | inactive: -1.54 | – | inactive: 2.42
33 | O[C@]12CC[C@](c3nnc4c(Oc5ccccc5Cl)cccn43)(CC1)C2 | inactive: -0.211 | inactive: 4.23 | inactive: 0.0494
34 | Cc1ccc2c(c1)c1c(n2CCc2ccccc2)CCN(C)C1 | inactive: -0.0258 | inactive: -0.201 | inactive: 2.47
35 | O=C(NC1CCCCC1)N1C2CCC1CN(C1CCNCC1)C2 | inactive: 4.51 | – | inactive: -0.273
36 | Cc1ccc(Nc2nnc(Cc3ccncc3)c3ccccc23)cc1Br | inactive: -2.18 | inactive: -1.63 | inactive: -1.07
37 | CC(C)(C)OC(=O)N[C@H]1CCCCC/C=C/[C@@H]2C[C@@]2(C(=O)NS(=O)(=O)C2CC2)NC(=O)[C@@H]2C[C@@H](OC(=O)N3Cc4cccc(F)c4C3)CN2C1=O [Danoprevir] | inactive: -0.857 | inactive: -0.788 | inactive: 0.482
38 | CCOC(=O)C1=C(Cn2ccnc2)NC(C)=C(C(=O)OC)C1c1cccc([N+](=O)[O-])c1 (configuration not stated) | inactive: -0.274 | inactive: -0.657 | inactive: -0.616
39 | CC(=O)c1ccc2c(c1)C(=O)C1(CC1)O2 [spizofurone] | inactive: -0.0721 | inactive: -0.561 | inactive: 0.28
40 | COc1ccc(C(O)CC(C)CC(C)(C)C)c(Cl)c1 (configuration not stated) | inactive: 4.44 | inactive: -1.57 | inactive: 0.62
41 | CC[C@H](C)[C@@H]1NC(=O)[C@H](Cc2ccc(O)cc2)NC(=O)[C@@H](N)CSSC[C@@H](C(=O)N2CCC[C@H]2C(=O)N[C@@H](CC(C)C)C(=O)NCC(N)=O)NC(=O)[C@H](CC(N)=O)NC(=O)[C@H](CCC(N)=O)NC1=O [oxytocin, inhaled, GlaxoSmithKline] | inactive: -0.296 | – | inactive: -1.21
42 | CC[C@H](C)[C@@H]1NC(=O)[C@H](Cc2ccc(O)cc2)NC(=O)[C@@H](N)CSSC[C@@H](C(=O)N2CCC[C@H]2C(=O)N[C@@H](CC(C)C)C(=O)NCC(N)=O)NC(=O)[C@H](CC(N)=O)NC(=O)[C@H](CCC(N)=O)NC1=O [oxytocin, inhaled] | – | inactive: -0.505 | –
43 | O=C1NC(c2ccc(-c3ccccc3)cc2)Nc2ccccc21 (configuration not stated) | inactive: -0.643 | inactive: 2.28 | inactive: -0.601
44 | Cc1occc(=O)c1[O][Ga+3]([O]c1c(C)occc1=O)[O]c1c(C)occc1=O [gallium maltolate] | inactive: -0.0951 | inactive: -0.624 | inactive: -1.55
45 | COc1ccc2c(c1)N(C[C@H](C)CN(C)C)c1ccccc1S2 [Levomepromazine] | inactive: -1.03 | inactive: 2.71 | inactive: 1.72
46 | CCCCN(CCCC)CCCOC(=O)c1ccc(N)cc1 | inactive: -0.396 | inactive: 0.948 | inactive: -2.2
47 | CN1CCC(Nc2ncc3ncnc(Nc4ccc(F)c(Cl)c4)c3n2)CC1 [Falnidamol] | inactive: -1.17 | inactive: 1.33 | inactive: 3.72
48 | O=C(Nc1ccc(F)cc1)C1CN(C2CCCC2)C(=O)N1 (configuration not stated) | inactive: 0.552 | – | inactive: 3.19
49 | CC(=O)NC[C@H]1CN(c2ccc(-n3ccnn3)c(F)c2)C(=O)O1 | inactive: -1.13 | inactive: -0.204 | inactive: 3.81
50 | CS(=O)(=O)Oc1ccc(OCCc2ccc(CC(C(=O)O)S(=O)CCc3ccc(O)cc3)cc2)cc1 (configuration not stated) | inactive: -0.305 | inactive: -1.64 | inactive: 0.417
51 | COC(=O)c1oc(-c2ccc(Cl)cc2)nc1C | inactive: -0.507 | inactive: 2.71 | inactive: -0.397
52 | COCOC(=O)[C@@H]1N2C(=O)[C@@H](N3C(=O)C(c4ccccc4)NC3(C)C)[C@H]2SC1(C)C (some centres not stated) [sarpicillin] | inactive: 0.101 | inactive: 0.667 | inactive: -0.668
53 | N[C@@H]1CCCN(c2c(/C=C3\SC(=O)NC3=O)cccc2-c2ccccc2)C1 | inactive: -0.78 | inactive: -1.23 and inactive: -1.45 | inactive: 0.148

Excerpt: entries 51 to 52
Row | SMILES | TEAD-luciferase reporter activity (compound concentration: 200 nM) | TEAD-luciferase reporter activity (compound concentration: 2 uM) | TEAD-luciferase reporter activity (compound concentration: 10 uM)
51 | COC(=O)c1oc(-c2ccc(Cl)cc2)nc1C | inactive: -0.507 | inactive: 2.71 | inactive: -0.397
52 | COCOC(=O)[C@@H]1N2C(=O)[C@@H](N3C(=O)C(c4ccccc4)NC3(C)C)[C@H]2SC1(C)C (some centres not stated) [sarpicillin] | inactive: 0.101 | inactive: 0.667 | inactive: -0.668
